# Where “and” joins values, the source holds several entries; their conditions need not be identical. Equal entries are not always repeated. The campaign covered roughly 580,000 compounds. About 6,100 (1.1%) were called active. The inconclusive results got no clear call from the source; some entries with a clear call stand among them for comparison. Calls come from the whole dose curve; as a rule, active = well fitted inhibition curve with a large enough effect; inconclusive = small, poorly fitted or top-dose-only effect, or another doubt; inactive = no such curve, though single readings can be large or run the other way. Where the call is inconclusive, the potency comes from a doubtful curve fit. Some compounds were tested as several samples or in several runs, with calls that do not always agree.
# Protein sequences, listed by entry. Tags and fused reporters are not part of them. Lines headed by an entry give the natural chain unless they say otherwise; changes in a name come on top.
# UniProt P18054: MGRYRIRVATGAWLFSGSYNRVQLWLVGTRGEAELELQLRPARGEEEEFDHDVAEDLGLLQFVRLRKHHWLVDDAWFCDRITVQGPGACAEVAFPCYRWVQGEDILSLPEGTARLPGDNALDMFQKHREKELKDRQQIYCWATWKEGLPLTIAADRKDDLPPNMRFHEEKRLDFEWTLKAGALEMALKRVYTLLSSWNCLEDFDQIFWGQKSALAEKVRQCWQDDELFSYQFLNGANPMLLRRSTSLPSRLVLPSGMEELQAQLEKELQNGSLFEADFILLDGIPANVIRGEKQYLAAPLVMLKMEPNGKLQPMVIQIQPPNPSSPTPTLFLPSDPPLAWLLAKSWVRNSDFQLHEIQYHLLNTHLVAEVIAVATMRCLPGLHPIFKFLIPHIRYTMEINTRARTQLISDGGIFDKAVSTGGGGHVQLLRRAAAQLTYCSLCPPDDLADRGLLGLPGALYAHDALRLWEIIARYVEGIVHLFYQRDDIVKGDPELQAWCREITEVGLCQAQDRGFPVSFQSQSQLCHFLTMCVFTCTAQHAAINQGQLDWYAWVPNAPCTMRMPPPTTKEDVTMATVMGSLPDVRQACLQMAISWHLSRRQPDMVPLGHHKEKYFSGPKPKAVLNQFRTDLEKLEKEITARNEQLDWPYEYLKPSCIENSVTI
# Biological target: Polyunsaturated fatty acid lipoxygenase ALOX12 (Homo sapiens) (UniProt P18054)
# Test: Primary qHTS assay for inhibitors of human arachidonate 12S-lipoxygenase (ALOX12): Round 2
# Details: purified 12hLO, xylenol orange hydroperoxide absorbance; activity change, negative = inhibition: at 108 µM (top of the series) unless noted
# Outline: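 Hydroperoxide product was detected by ferrous iron/xylenol orange as the 573 to 405 nm absorbance ratio. Arachidonic acid at 40 uM (final) was turned over for 30 min at room temperature by 150 nM human 12hLO, pH 7.0 Hepes buffer, after 15 min compound preincubation.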
# % is set by controls: 0 for no effect and ±100 for the full control effect; potency is the fitted concentration of half-maximal effect.
SMILES,Potency,"activity change, negative = inhibition"
CCCCc1ccc(C(=O)Nc2ccc3nc(N4CCN(CC)CC4)cc(C)c3c2)cc1,"inconclusive: 141 µM [inhibitor, single point]",–
COc1cc(/C=C(/C#N)c2ccc(Cl)cc2)cc(OC)c1OC,–,inactive: -5.36%
COc1ccc(C)cc1NC(=O)c1cc(S(=O)(=O)N2CCC(C)CC2)ccc1F,–,inactive: -22.7%
CCC1c2nccn2CCCN1C(=O)c1ccc2ncccc2c1 (stereo not given),–,inactive: 58.3%
CN(C)C1(Cc2cc(COc3ccccc3)on2)COC1,–,inactive: -9.22% [at 176 µM]
COc1ccc(C(=O)NC2CCCc3c2cnn3-c2cc(F)cc(F)c2)c(OC)c1OC (stereo not given),–,inactive: 19.6%
CC(=O)C1=C(O)C(=O)N(c2ccc(C(=O)O)cc2)C1c1ccccc1 (stereo not given),"inconclusive: 31.6 µM [inhibitor, partial curve, poor fit]",–
CN(C)c1ccc(C(O)c2cc3ccccc3s2)cc1 (stereo not given),"inconclusive: 17.8 µM [inhibitor, full curve, poor fit]",–
Cc1ccc2cc(-c3ccccc3)[nH]c2c1,"inconclusive: 7.08 µM [inhibitor, full curve, poor fit]",–
COc1cccc(OCC(O)CN2CCN(CCO)CC2)c1 (stereo not given),"inconclusive: 44.7 µM [inhibitor, partial curve, poor fit]",–
COc1ccc(OC)c(NC(=O)N2C[C@@H](F)C[C@H]2C(=O)N2CCCCC2)c1,"inconclusive: 1 µM [inhibitor, full curve, poor fit]",–
Cc1[nH]nc2c1C(Cc1ccccc1)C(C#N)=C(N)O2 (stereo not given),–,inactive: 0%
O=C(c1nn(-c2ccccc2)c(=O)c2ccccc12)N1CCC1,–,inactive: 28.9%
CN1CCN(CC(=O)Nc2nc(-c3c[nH]c4ccccc34)cs2)CC1,"inconclusive: 44.7 µM [inhibitor, partial curve, poor fit]",–
O=C(c1cccnc1)N1CCn2cc(C(=O)N3CCOCC3)nc2C1,–,inconclusive: -30.9% [inhibitor]
CC1(C)CNC(=O)c2nc(CC3(O)CCCC3)[nH]c2C1,"inconclusive: 35.5 µM [inhibitor, partial curve, poor fit]",–
O=C1OC[C@@H]2CCN(Cc3ccc4c(c3)OCO4)Cc3ccc(F)cc3N12,"inconclusive: 70.8 µM [inhibitor, full curve, poor fit]",–
C=CC[C@@H](CC(=O)N(CCO)Cc1ccccc1)C(=O)N[C@H](COC(=O)[C@@H](CC=C)CC(=O)OC(C)(C)C)Cc1ccccc1,–,inactive: -0.598%
CCc1ccccc1NC(=O)c1cc(-c2ccc(Cl)s2)nc2ccccc12,"inconclusive: 50.1 µM [inhibitor, partial curve, poor fit]",–
Cc1nnc(NC(=O)c2ccc(N3CCCC3=O)cc2)s1,–,inactive: -16.1%
COc1ccc(C(C)=O)cc1COC(=O)Cc1n[nH]c(=O)c2ccccc12,–,inactive: 0%
N#Cc1nc(Cc2ccccc2)oc1N1CCN(c2ccccc2)CC1,–,inactive: 3.05% [at 57.4 µM]
COc1cccc2cc(-c3nc(-c4ccc(Cl)cc4)no3)c(=O)oc12,–,inactive: 9.17%
COc1ccc(OC)c(CNC(=O)CCCn2c(=O)c3cccn3c3cccnc32)c1,"inconclusive: 3.55 µM [inhibitor, full curve, poor fit]",–
O=C(c1cc2ccccc2oc1=O)N1CCN(C(c2ccccc2)c2ccccc2)CC1,–,inactive: -0.968%

# Filtered by structure: the entries above with nitrogen in an aromatic ring.
SMILES,Potency,"activity change, negative = inhibition"
CCCCc1ccc(C(=O)Nc2ccc3nc(N4CCN(CC)CC4)cc(C)c3c2)cc1,"inconclusive: 141 µM [inhibitor, single point]",–
CCC1c2nccn2CCCN1C(=O)c1ccc2ncccc2c1 (stereo not given),–,inactive: 58.3%
CN(C)C1(Cc2cc(COc3ccccc3)on2)COC1,–,inactive: -9.22% [at 176 µM]
COc1ccc(C(=O)NC2CCCc3c2cnn3-c2cc(F)cc(F)c2)c(OC)c1OC (stereo not given),–,inactive: 19.6%
Cc1ccc2cc(-c3ccccc3)[nH]c2c1,"inconclusive: 7.08 µM [inhibitor, full curve, poor fit]",–
Cc1[nH]nc2c1C(Cc1ccccc1)C(C#N)=C(N)O2 (stereo not given),–,inactive: 0%
O=C(c1nn(-c2ccccc2)c(=O)c2ccccc12)N1CCC1,–,inactive: 28.9%
CN1CCN(CC(=O)Nc2nc(-c3c[nH]c4ccccc34)cs2)CC1,"inconclusive: 44.7 µM [inhibitor, partial curve, poor fit]",–
O=C(c1cccnc1)N1CCn2cc(C(=O)N3CCOCC3)nc2C1,–,inconclusive: -30.9% [inhibitor]
CC1(C)CNC(=O)c2nc(CC3(O)CCCC3)[nH]c2C1,"inconclusive: 35.5 µM [inhibitor, partial curve, poor fit]",–
CCc1ccccc1NC(=O)c1cc(-c2ccc(Cl)s2)nc2ccccc12,"inconclusive: 50.1 µM [inhibitor, partial curve, poor fit]",–
Cc1nnc(NC(=O)c2ccc(N3CCCC3=O)cc2)s1,–,inactive: -16.1%
COc1ccc(C(C)=O)cc1COC(=O)Cc1n[nH]c(=O)c2ccccc12,–,inactive: 0%
N#Cc1nc(Cc2ccccc2)oc1N1CCN(c2ccccc2)CC1,–,inactive: 3.05% [at 57.4 µM]
COc1cccc2cc(-c3nc(-c4ccc(Cl)cc4)no3)c(=O)oc12,–,inactive: 9.17%
COc1ccc(OC)c(CNC(=O)CCCn2c(=O)c3cccn3c3cccnc32)c1,"inconclusive: 3.55 µM [inhibitor, full curve, poor fit]",–

# Further compounds:

SMILES,Potency,"activity change, negative = inhibition"
C=CCNc1nc(C(=O)OCC(=O)NC(C)c2ccc(F)cc2)cs1 (stereo not given),"inconclusive: 28.2 µM [inhibitor, partial curve, poor fit]",–
S=c1[nH]nc(C2CCCCC2)n1/N=C/c1ccc(Br)cc1,–,inactive: 0.771%
CCOCCn1c(SCC(=O)O)nc2c1c(=O)[nH]c(=O)n2C,"inconclusive: 0.891 µM [inhibitor, full curve, poor fit]",–
Cc1ccc(S(=O)(=O)NC(C)C(=O)OCc2coc(-c3cccs3)n2)cc1 (stereo not given),"inconclusive: 44.7 µM [inhibitor, partial curve, poor fit]",–
CCN(CC)c1ccc(C(=O)NN)cc1,–,inactive: -1.2%
Cc1nc2ccc(S(=O)(=O)N(CC(=O)N3CCCC3)Cc3ccccc3)cc2s1,"inconclusive: 44.7 µM [inhibitor, partial curve, poor fit]",–
O=C(Nc1ccc(Cl)cn1)C1C(c2ccccc2)C1(Cl)Cl (stereo not given),"inconclusive: 15.8 µM [inhibitor, full curve, poor fit]",–
CC(C)(C)c1ccc(C(=O)C2CC2)cc1,–,inactive: 8.4%
O=c1[nH]c2ccc(-c3csc(NC4CCCC4)n3)cc2[nH]1,active: 35.5 µM,–
Cc1ccc(S(=O)(=O)/N=C/c2ccco2)cc1,"inconclusive: 31.6 µM [inhibitor, single point]",–
COc1ccccc1-c1nnc(C2CCN(C(=O)c3ccccc3C)CC2)o1,–,inactive: 1.47%
COc1ccc(-c2ccnc3nc(N4CCCCC4)[nH]c(=O)c23)cc1,"inconclusive: 50.1 µM [inhibitor, partial curve, poor fit]",–
COCCN1C(=O)CCC2(CNC(=O)c3cc(F)ccc3F)CCCC=C12 (stereo not given),–,inactive: 14.4%
Cc1ccc(NC(=S)Nn2cnnc2)c(C)c1,"inconclusive: 31.6 µM [inhibitor, single point]",–
COc1cc(Cl)cc(C#N)c1OCC(=O)O,"inconclusive: 35.5 µM [inhibitor, partial curve]",–
COc1cc2c(CCNC(C)=O)c[nH]c2cc1O,inactive and active: 39.8 µM,–
CCCC1CCC(c2ccc(C(=O)Oc3ccc(C)nc3)cc2)CC1 (stereo not given),–,inactive: 4.18%
Cc1ccc(O)c(NC(=O)CCS(=O)(=O)c2nc(-c3cccs3)cc(C(F)(F)F)n2)c1,–,inactive: -0.526%
COc1ccc(OC)c(-c2cc3ccc(OCC#N)cc3oc2=O)c1,"inconclusive: 22.4 µM [inhibitor, full curve, poor fit]",–
COc1ccc(C2c3c(ncn(Cc4ccco4)c3=N)Oc3ccc4ccccc4c32)cc1 (stereo not given),"inconclusive: 44.7 µM [inhibitor, partial curve, poor fit]",–
COc1ccc(-c2cc(NC=O)c3ncc(-c4cnn(C)c4)n3c2)cc1,"inconclusive: 44.7 µM [inhibitor, partial curve]",–
CCCn1nc2cc(C(=O)NCc3ccc(OC)cc3)ccc2c1OCC,"inconclusive: 44.7 µM [inhibitor, partial curve, poor fit]",–
Cn1c(SCC(=O)NC(C)(C)C)nnc1-c1cc2c(s1)CCC(C(C)(C)C)C2 (stereo not given),–,inactive: 0.105%
Cc1cccc(-n2cnc3cc(C(=O)NCc4ccccc4Cl)ccc32)c1,–,inactive: -6.78%
Cc1ccc(C(C)C)c(OCC(=O)Nc2cc(-c3nc4ccccc4[nH]3)ccc2C)c1,–,inactive: -12.9%

SMILES,Potency,"activity change, negative = inhibition"
COc1ccc(C2C=C(c3ccccc3)Nc3nc(NC(C)=O)nn32)cc1 (stereo not given),"inconclusive: 35.5 µM [inhibitor, partial curve, poor fit]",–
O=C1Nc2ccccc2/C1=C\C(=O)c1ccccc1,"inconclusive: 79.4 µM [inhibitor, partial curve, poor fit]",–
CCOC(CNCc1cc(C)c2[nH]c3ccccc3c2c1C)OCC,–,inactive: -22.2%
COc1cccc(-c2cc(N3C(=O)Nc4ccccc4N3O)n[nH]2)c1,"inconclusive: 35.5 µM [inhibitor, single point]",–
Cc1ccn2cc(-c3cnoc3C)nc2c1,–,inactive: 7.28% [at 57.4 µM]
CCn1nc(C)c2c(-c3ccccc3)cc(=O)n(C(C)C(=O)Nc3ccc(OC)c(OC)c3)c21 (stereo not given),"inconclusive: 50.1 µM [inhibitor, partial curve, poor fit]",–
Cn1c(N2CCN(C(=O)NCc3ccccc3)CC2)nc2ccccc21,–,inactive: -20.7%
O=C(CCS(=O)(=O)c1ccc2c(c1)NC(=O)CO2)NCCc1ccccc1,–,inactive: 0.0567%
CCn1c(C)cc(/C=C2\SC(=O)N(CC(=O)Nc3ccc(C)c(C)c3)C2=O)c1C,"inconclusive: 3.55 µM [inhibitor, full curve, poor fit]",–
Cc1cc(N2CCCC2)ccc1NC(=O)COc1ccccc1,"inconclusive: 39.8 µM [inhibitor, partial curve, poor fit]",–
Cc1ccc(N=Cc2cccc([N+](=O)[O-])c2)c(C)c1,–,inactive: -7.56%
Oc1ccc(N2CCN(C(=S)NCCc3ccccc3)CC2)cc1,"inconclusive: 28.2 µM [inhibitor, partial curve, poor fit]",–
CC1CCC(NC(=O)Cc2coc(-c3ccccc3)n2)CC1 (stereo not given),–,inactive: -11.4%
O=C(Cn1c(=O)sc2ccccc21)NCc1ccccn1,–,inactive: 429%
O=C(CSc1nnc(N2CCOCC2)n1-c1cccc(F)c1)NCC(=O)Nc1ccc(F)cc1,"inconclusive: 56.2 µM [inhibitor, single point]",–
COc1cccc(NC(=O)Nc2ccc(Cc3ccncc3)cc2)c1,–,inactive: -4.46%
CCN(CC)CCCN1C=C2C(=O)C(C)(OC(=O)C3CCCC3)C(=O)C=C2C=C1c1ccsc1 (stereo not given),"inconclusive: 11.2 µM [inhibitor, partial curve]",–
Cc1ccc(CNC(=O)c2cn(C3CCCCC3)c(=O)c3c2c2ccccc2n3C)o1,–,inactive: -5.32%
COc1ccc(-n2c(CCC(=O)O)ccc2-c2ccc(F)cc2)c(OC)c1,–,inactive: 0.891%
CC1(C)C2CCC(C2)C1(C)NC(=O)CN1CCN(Cc2ccccc2)CC1 (stereo not given),"inconclusive: 5.62 µM [inhibitor, full curve]",–
O=c1cc(-c2ccncc2)oc2c(-c3cccc4[nH]ccc34)nccc12,"inconclusive: 63.1 µM [inhibitor, partial curve]",–
COc1ccc(C(=O)Nc2ccc(O)c3ccccc23)cc1OC,"inconclusive: 100 µM [inhibitor, single point]",–
O=C(N[C@@H]1COCC[C@@H]1OCC1CC1)c1ccc2c(c1)CCCO2,–,inactive: 27.7%
Nc1ccc(C=Cc2ccc(N)cc2)cc1,–,inactive: 2.55%
O=c1cc(CCl)c2ccc3ccccc3c2o1,"inconclusive: 10 µM [inhibitor, full curve, poor fit]",–

# Reference: PubChem BioAssay AID1671190 (National Center for Advancing Translational Sciences (NCATS), 2021)
